Literature values, collected in patent publication US9937255B2, “Coated balloons for blood vessel stabilization” (NECTERO MEDICAL, INC., priority 2011, dated 2018).
At least one compound was matched to its structure with a doubt left.

System: abdominal aorta (model of aortic aneurysms)
Conditions: periarterial treatment; clinically relevant model of aortic aneurysms

## O=C(OC[C@H]1O[C@@H](OC(=O)c2cc(O)c(O)c(O)c2)[C@H](OC(=O)c2cc(O)c(O)c(O)c2)[C@@H](OC(=O)c2cc(O)c(O)c(O)c2)[C@@H]1OC(=O)c1cc(O)c(O)c(O)c1)c1cc(O)c(O)c(O)c1 [PGG, Pentagalloylglucose]
  aneurysmal dilatation of the abdominal aorta: hinders aneurysmal dilatation of the abdominal aorta
  elastin fiber integrity: preserves elastin fiber integrity
